Values of other authors, collected in patent US8691977B2, “Certain chemical entities, compositions, and methods” (Neupharma, Inc., priority 2010, dated 2014).
For at least one compound, name, drawing or mass did not settle the structure.

How the values were obtained:
NF-KB activation = settings: Jin et al., J Nat Prod 65: 89 (2002); read-out: IC50, inhibition of NF-KB activation; cited from earlier work
nitric oxide production = settings: Jin et al., J Nat Prod 65: 89 (2002); read-out: IC50, inhibition of nitric oxide production; cited from earlier work

CC1=C(O)C(=O)C=C2C1=CC=C1[C@@]2(C)CC[C@@]2(C)[C@@H]3C[C@](C)(C(=O)O)CC[C@]3(C)CC[C@]12C [Celastrol]
IC50 (NF-KB activation): 0.27 µM | IC50 (nitric oxide production): 0.23 µM
